Experimental findings from article PMC6726633, “Different Grp94 components interact transiently with the myocilin olfactomedin domain in vitro to enhance or retard its amyloid aggregation” (Scientific Reports, 2019) are described below.

Protein sequences, listed by entry. Tags and fused reporters are not part of them. Residues count along the entry.
UniProt P14625, residues 22-803: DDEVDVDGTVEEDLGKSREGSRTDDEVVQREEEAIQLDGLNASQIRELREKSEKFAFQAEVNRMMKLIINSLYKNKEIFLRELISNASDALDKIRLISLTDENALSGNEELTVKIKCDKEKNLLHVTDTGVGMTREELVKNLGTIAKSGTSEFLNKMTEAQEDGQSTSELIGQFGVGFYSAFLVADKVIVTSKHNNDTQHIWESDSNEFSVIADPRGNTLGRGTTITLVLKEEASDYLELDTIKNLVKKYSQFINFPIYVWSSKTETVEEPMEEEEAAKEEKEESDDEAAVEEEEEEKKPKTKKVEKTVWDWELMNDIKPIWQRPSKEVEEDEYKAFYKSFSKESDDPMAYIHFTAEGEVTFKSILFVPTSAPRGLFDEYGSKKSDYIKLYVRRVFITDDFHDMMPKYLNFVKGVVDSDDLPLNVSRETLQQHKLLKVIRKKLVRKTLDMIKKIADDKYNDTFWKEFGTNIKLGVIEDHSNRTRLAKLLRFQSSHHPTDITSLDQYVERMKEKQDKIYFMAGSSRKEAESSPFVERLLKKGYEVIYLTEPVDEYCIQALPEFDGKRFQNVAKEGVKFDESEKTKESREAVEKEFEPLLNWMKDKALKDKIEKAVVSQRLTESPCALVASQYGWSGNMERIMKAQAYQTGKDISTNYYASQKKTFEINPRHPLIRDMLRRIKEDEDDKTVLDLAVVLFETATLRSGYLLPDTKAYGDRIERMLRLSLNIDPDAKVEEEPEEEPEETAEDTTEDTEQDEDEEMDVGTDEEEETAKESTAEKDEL

The target in test [1] is T1, Dansylated myocilin olfactomedin domain with the glaucoma-associated D380A variant (human) (UniProt Q99972).
T1 sequence (chain, dansyl, sites not stated): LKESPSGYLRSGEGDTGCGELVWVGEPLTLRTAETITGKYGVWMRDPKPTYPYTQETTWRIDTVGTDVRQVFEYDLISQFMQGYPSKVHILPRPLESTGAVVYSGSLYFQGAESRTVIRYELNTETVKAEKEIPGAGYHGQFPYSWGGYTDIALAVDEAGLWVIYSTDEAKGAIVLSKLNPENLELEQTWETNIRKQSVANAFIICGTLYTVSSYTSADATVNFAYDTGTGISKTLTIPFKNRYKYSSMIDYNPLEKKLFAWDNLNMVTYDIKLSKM
Briefly: fluorescence polarisation; 0.01 μM OLFd D380A with 0-185.6 μM Grp94 (monomer) in PBS, 25 °C, excitation 340 nm, emission 492 nm, background-corrected with Grp94FL-only samples; both purified.

The target of test [2] is T2, Dansylated myocilin olfactomedin domain (human) (UniProt Q99972).
T2 sequence (chain, dansyl (~2 dansyl modifications per OLFd by MS), sites not stated): T1 sequence (chain, dansyl, sites not stated) with A153D
Briefly: cross-linking; Grp94FL:OLF 1:20, OLF 100 μM (dansylated or label-free), PBS, pre-incubated 30 min at 42 °C, 50 μM BS3(d0/d4) 1 h at 42 °C; SDS-PAGE (Coomassie, dansyl fluorescence), in-gel digestion and LC-MS; both purified.

Residue numbers refer to the chain shown, from its start. No constants are given. Whether binding was seen depends on the method and setting. Some binding calls cover weakened binding; strength is not graded here.

Regarding “Full-length Grp94 (glucose regulated protein 94), residues 22-803 (from UniProt P14625 22-803)”, the binding result in test [1] is reported as “no binding (tested: 93 μM Grp94 dimer: 0.01 μM OLF)”; in test [2], “binds weakly”.
